A short description of the data set: general procedure: solution-phase peptide synthesis; DCCI/HOOBt, DIEA.
Setting [1] is: late stage modification step, AUC@210 nm.

Bounds are passed on as bounds.

H-Aha-Gly-Asp-Trp .psi.-[CHN4 ] gave a step yield (late stage modification step) of 44%. Besides, under setting [1], the “final HPLC purity” value is reported as greater than 97%.
The like results for H-Aha-Gly-Asp-Trp .psi.-[CN4 ]-t-Bu were, in that order, 23% and greater than 97%.
For the substance Boc-Aha-Gly-Asp(t-Bu)-Trp .psi.-[CHN4 ], the step yield (coupling step) was 94%. For the same substance, under “coupling step, AUC@210 nm”, the “crude HPLC purity” value was found to be 94.8%.

The record behind these values is patent US5340798 (dated 1994).
